# Source: the M2OR odorant receptor database
# The chains behind the UniProt entries cited, without tags or fusion partners. Where a name states a change or a piece, a line headed by the entry shows the natural chain unless it says otherwise.
# UniProt Q8NGE3: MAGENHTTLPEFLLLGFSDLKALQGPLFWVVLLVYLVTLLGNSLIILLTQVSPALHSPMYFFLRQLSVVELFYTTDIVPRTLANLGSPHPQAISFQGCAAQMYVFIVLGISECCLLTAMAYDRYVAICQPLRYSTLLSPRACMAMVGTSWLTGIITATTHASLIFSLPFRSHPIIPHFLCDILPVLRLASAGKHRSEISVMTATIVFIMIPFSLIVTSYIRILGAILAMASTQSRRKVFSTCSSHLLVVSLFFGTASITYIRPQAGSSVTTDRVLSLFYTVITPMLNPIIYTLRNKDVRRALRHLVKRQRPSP
# UniProt Q8NGQ4: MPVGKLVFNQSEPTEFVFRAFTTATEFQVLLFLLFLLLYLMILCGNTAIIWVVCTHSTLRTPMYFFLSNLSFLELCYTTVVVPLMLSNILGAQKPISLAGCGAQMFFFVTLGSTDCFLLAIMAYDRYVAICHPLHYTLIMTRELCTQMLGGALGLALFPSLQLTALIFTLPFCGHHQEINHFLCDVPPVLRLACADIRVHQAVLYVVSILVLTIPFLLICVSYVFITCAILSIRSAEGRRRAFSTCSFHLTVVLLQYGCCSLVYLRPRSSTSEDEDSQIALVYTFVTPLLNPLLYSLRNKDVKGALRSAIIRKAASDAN
# UniProt Q8NGX6: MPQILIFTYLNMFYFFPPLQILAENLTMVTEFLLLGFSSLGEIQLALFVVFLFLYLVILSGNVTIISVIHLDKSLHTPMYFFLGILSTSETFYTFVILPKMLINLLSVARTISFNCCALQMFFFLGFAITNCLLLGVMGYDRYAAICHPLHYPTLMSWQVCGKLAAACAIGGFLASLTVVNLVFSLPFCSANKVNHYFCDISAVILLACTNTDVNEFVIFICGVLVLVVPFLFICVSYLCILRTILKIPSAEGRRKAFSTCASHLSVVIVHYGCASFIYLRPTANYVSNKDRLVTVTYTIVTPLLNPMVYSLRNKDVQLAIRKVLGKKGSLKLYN
# UniProt Q8NGF6: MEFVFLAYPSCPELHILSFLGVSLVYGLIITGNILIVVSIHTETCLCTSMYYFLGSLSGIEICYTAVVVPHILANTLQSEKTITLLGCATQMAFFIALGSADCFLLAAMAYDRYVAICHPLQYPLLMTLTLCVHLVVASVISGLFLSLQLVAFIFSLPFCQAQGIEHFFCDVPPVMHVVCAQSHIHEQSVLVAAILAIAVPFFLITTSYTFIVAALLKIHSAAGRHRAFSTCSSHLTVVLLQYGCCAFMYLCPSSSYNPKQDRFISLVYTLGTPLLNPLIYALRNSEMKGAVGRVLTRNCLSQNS
# The entries are a selection whose mix differs from that of the whole data set. The calls were merged from several studies; some rest on single wells. This is one part of the list.
# Assays:
# Conditions in all cases: stereoisomer not certain
# OR10K1 (Homo sapiens) = molecular target: T1, OR10K1 (Homo sapiens) (UniProt Q8NGX5)
# T1 sequence (whole entry): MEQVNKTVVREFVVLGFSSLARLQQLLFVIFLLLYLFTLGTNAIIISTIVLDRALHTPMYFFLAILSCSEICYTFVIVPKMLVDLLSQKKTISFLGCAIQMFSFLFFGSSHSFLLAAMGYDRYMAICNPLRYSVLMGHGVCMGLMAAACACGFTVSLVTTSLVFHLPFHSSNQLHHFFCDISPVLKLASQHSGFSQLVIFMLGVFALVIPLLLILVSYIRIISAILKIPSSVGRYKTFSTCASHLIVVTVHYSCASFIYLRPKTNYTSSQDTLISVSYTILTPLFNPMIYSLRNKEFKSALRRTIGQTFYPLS
# In short: (§1)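 Transient luciferase assays in mammalian cell lines were common, though methods varied by source. The values come from published papers and their supplementary material, with extra details from the original authors when needed. Responsive refers to a measured signal the original authors judged statistically different from baseline, and non-responsive (inactive) to the remainder.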
# OR10K2 (Homo sapiens) = molecular target: T2, OR10K2 (Homo sapiens) (UniProt Q6IF99)
# T2 sequence (whole entry): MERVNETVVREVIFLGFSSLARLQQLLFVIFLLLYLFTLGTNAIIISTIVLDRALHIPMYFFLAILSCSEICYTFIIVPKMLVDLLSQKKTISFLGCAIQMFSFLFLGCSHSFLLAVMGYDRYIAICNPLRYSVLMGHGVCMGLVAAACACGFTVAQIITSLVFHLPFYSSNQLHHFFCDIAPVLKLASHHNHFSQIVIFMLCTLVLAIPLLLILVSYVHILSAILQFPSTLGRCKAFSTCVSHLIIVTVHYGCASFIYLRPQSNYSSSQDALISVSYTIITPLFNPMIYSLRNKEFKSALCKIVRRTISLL
# In short: as §1
# OR10T2 (Homo sapiens) = molecular target: T3, OR10T2 (Homo sapiens) (UniProt Q8NGX3)
# T3 sequence (whole entry): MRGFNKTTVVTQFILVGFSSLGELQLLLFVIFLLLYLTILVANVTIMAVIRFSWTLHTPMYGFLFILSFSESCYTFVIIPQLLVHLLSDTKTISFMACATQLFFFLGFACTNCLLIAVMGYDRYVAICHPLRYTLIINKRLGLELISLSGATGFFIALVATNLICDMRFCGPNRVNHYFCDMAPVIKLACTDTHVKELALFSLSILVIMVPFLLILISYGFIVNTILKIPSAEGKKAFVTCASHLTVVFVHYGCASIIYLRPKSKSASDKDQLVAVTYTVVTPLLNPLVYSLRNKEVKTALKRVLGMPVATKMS
# In short: as §1
# OR10X1 (Homo sapiens) = molecular target: T4, OR10X1 (Homo sapiens) (UniProt Q8NGY0)
# T4 sequence (whole entry): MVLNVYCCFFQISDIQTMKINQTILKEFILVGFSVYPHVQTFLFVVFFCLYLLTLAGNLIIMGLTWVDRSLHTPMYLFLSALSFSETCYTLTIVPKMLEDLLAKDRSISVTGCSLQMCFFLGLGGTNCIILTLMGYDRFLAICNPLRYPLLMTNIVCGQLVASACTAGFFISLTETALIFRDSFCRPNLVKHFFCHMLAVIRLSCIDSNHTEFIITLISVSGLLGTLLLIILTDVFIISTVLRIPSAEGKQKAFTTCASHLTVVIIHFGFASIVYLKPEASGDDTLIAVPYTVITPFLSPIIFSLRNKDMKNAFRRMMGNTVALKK
# In short: as §1
# OR10Z1 (Homo sapiens) = molecular target: T5, OR10Z1 (Homo sapiens) (UniProt Q8NGY1)
# T5 sequence (whole entry): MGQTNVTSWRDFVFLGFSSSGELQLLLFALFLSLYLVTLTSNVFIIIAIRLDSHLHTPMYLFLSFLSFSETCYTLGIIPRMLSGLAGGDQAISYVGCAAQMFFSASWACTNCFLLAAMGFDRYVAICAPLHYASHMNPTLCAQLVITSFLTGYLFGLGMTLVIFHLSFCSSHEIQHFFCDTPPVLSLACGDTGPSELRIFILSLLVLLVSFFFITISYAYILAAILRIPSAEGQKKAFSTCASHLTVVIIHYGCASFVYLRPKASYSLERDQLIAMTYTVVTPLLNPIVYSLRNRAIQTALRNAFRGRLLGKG
# In short: as §1
# OR10S1 (Homo sapiens) = molecular target: T6, OR10S1 (Homo sapiens) (UniProt Q8NGN2)
# T6 sequence (whole entry): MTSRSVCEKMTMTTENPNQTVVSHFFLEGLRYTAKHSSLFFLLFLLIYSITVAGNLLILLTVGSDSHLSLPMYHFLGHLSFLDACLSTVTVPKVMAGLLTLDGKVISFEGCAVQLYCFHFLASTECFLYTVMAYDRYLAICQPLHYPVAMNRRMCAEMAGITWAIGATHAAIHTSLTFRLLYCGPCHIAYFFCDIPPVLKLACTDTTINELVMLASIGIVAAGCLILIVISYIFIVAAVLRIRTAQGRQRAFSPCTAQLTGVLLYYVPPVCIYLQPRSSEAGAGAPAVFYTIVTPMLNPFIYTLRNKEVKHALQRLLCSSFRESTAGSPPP
# In short: as §1
# OR10P1 (Homo sapiens) = OR10P1 (Homo sapiens) (UniProt Q8NGE3)
# In short: as §1
# OR10Q1 (Homo sapiens) = OR10Q1 (Homo sapiens) (UniProt Q8NGQ4)
# In short: as §1
# OR10R2 (Homo sapiens) = OR10R2 (Homo sapiens) (UniProt Q8NGX6)
# In short: as §1
# OR10W1 (Homo sapiens) = OR10W1 (Homo sapiens) (UniProt Q8NGF6)
# In short: as §1
SMILES,odorant receptor agonist call (OR10K1 (Homo sapiens)),odorant receptor agonist call (OR10K2 (Homo sapiens)),odorant receptor agonist call (OR10T2 (Homo sapiens)),odorant receptor agonist call (OR10X1 (Homo sapiens)),odorant receptor agonist call (OR10Z1 (Homo sapiens)),odorant receptor agonist call (OR10S1 (Homo sapiens)),odorant receptor agonist call (OR10P1 (Homo sapiens)),odorant receptor agonist call (OR10Q1 (Homo sapiens)),odorant receptor agonist call (OR10R2 (Homo sapiens)),odorant receptor agonist call (OR10W1 (Homo sapiens))
CCC1(O)C2(C)CCC(C2)C1(C)C (centres undefined),inactive,inactive,inactive,inactive,inactive,–,–,–,–,–
CCCCCCCC=O,inactive,inactive,inactive,inactive,inactive,inactive,–,–,–,–
CC12CCC(C1)C(C)(C)C2=O (centres undefined),inactive,inactive,inactive,inactive,inactive,–,–,–,–,–
CC12C=CCC1C1CCC3=CC(=O)CCC3(C)C1CC2 (centres undefined),inactive,inactive,inactive,inactive,inactive,–,–,–,–,–
O=CCc1ccccc1,inactive,inactive,inactive,inactive,inactive,–,–,–,–,–
COC(=O)c1ccccc1O,inactive,inactive,inactive,inactive,inactive,–,–,–,–,–
CCCCCCCCCCC=O,inactive,inactive,inactive,inactive,inactive,inactive,–,–,–,–
CC(C)CCC(=O)O,inactive,inactive,inactive,inactive,inactive,–,–,–,–,–
c1ccc(Oc2ccccc2)cc1,inactive,inactive,inactive,inactive,inactive,–,–,–,–,–
CC12C=CCC1C1CCC3CC(=O)CCC3(C)C1CC2 (centres undefined),inactive,inactive,inactive,inactive,inactive,–,inactive,inactive,inactive,inactive
C=CC(C)(O)CCC=C(C)C (centres undefined),inactive,inactive,inactive,inactive,inactive,inactive,–,–,–,–
CCCCCCCC=CC=O,active,inactive,active,inactive,active,–,–,–,–,–
CCCCO,inactive,inactive,inactive,inactive,inactive,inactive,–,–,–,–
C=CCSCC=C,inactive,inactive,inactive,inactive,inactive,–,–,–,–,–
CC(=O)C(C)=O,inactive,inactive,inactive,inactive,inactive,–,–,–,–,–
CCCC(=O)O,inactive,inactive,inactive,inactive,inactive,inactive,–,–,–,–
C=CCc1ccc(OC(C)=O)c(OC)c1,inactive,inactive,inactive,inactive,inactive,–,–,–,–,–
CC(=O)OC(C)(C)C1CC=C(C)CC1 (centres undefined),inactive,inactive,inactive,inactive,inactive,–,–,–,–,–
CC1CCC(C(C)C)C(O)C1 (centres undefined),inactive,inactive,inactive,inactive,inactive,inactive,–,–,–,–
CC(C)CC(=O)O,inactive,inactive,inactive,inactive,inactive,inactive,–,–,–,–
O=C1CCCCCCCCCCCC(=O)OCCO1,inactive,inactive,inactive,inactive,inactive,–,–,–,–,–
COc1cc(C)ccc1O,inactive,inactive,inactive,inactive,inactive,–,–,–,–,–

# For reference, some entries already given.
SMILES,odorant receptor agonist call (OR10K1 (Homo sapiens)),odorant receptor agonist call (OR10K2 (Homo sapiens)),odorant receptor agonist call (OR10T2 (Homo sapiens)),odorant receptor agonist call (OR10X1 (Homo sapiens)),odorant receptor agonist call (OR10Z1 (Homo sapiens)),odorant receptor agonist call (OR10S1 (Homo sapiens)),odorant receptor agonist call (OR10P1 (Homo sapiens)),odorant receptor agonist call (OR10Q1 (Homo sapiens)),odorant receptor agonist call (OR10R2 (Homo sapiens)),odorant receptor agonist call (OR10W1 (Homo sapiens))
C=CC(C)(O)CCC=C(C)C (centres undefined),inactive,inactive,inactive,inactive,inactive,inactive,–,–,–,–
CCCCCCCC=CC=O,active,inactive,active,inactive,active,–,–,–,–,–
CCCCO,inactive,inactive,inactive,inactive,inactive,inactive,–,–,–,–

# Going on with the list:

SMILES,odorant receptor agonist call (OR10K1 (Homo sapiens)),odorant receptor agonist call (OR10K2 (Homo sapiens)),odorant receptor agonist call (OR10T2 (Homo sapiens)),odorant receptor agonist call (OR10X1 (Homo sapiens)),odorant receptor agonist call (OR10Z1 (Homo sapiens)),odorant receptor agonist call (OR10S1 (Homo sapiens)),odorant receptor agonist call (OR10P1 (Homo sapiens)),odorant receptor agonist call (OR10Q1 (Homo sapiens)),odorant receptor agonist call (OR10R2 (Homo sapiens)),odorant receptor agonist call (OR10W1 (Homo sapiens))
CC(=O)OC1CC2CCC1(C)C2(C)C (centres undefined),inactive,inactive,inactive,inactive,inactive,–,–,–,–,–
c1cnccn1,inactive,inactive,inactive,inactive,inactive,–,–,–,–,–
CC(C)=CCCC(C)=CC=O,inactive,inactive,inactive,inactive,inactive,–,–,–,–,–
COc1cc(C=O)ccc1O,inactive,inactive,inactive,inactive,inactive,inactive,–,–,–,–
CCCCCC(=O)O,inactive,inactive,inactive,inactive,inactive,–,–,–,–,–
CC(=O)c1ccccc1,inactive,inactive,inactive,inactive,inactive,–,–,–,–,–
CC(C)C(=O)O,inactive,inactive,inactive,inactive,inactive,–,–,–,–,–
CC12CCC(CC1)C(C)(C)O2,inactive,inactive,inactive,inactive,inactive,–,–,–,–,–
CCC=CCCO,inactive,inactive,inactive,inactive,inactive,–,–,–,–,–
CCCCCOC(C)=O,active,inactive,inactive,inactive,inactive,–,–,–,–,–
CC1COCc2cc3c(cc21)C(C)(C)C(C)C3(C)C (centres undefined),inactive,active,inactive,active,inactive,–,–,–,–,–
CC(C)C=O,inactive,inactive,inactive,inactive,inactive,–,–,–,–,–
C=C(C)C1CC=C(C)C(=O)C1 (centres undefined),–,–,–,–,–,inactive,–,–,–,–
CCCCCCCCOC(C)=O,inactive,inactive,inactive,inactive,inactive,–,–,–,–,–
COC(=O)c1ccccc1,active,active,inactive,inactive,inactive,–,–,–,–,–
CCCCCCOC(=O)CCC,inactive,inactive,inactive,inactive,inactive,–,–,–,–,–
C=CCc1ccc(OC)c(OC)c1,inactive,inactive,inactive,inactive,inactive,–,–,–,–,–
CC(C)(C)c1ccc(CCC=O)cc1,inactive,inactive,inactive,inactive,inactive,–,–,–,–,–
CCCCCCCCCC=O,inactive,inactive,inactive,inactive,inactive,–,–,–,–,–
CCCCCC(C)=O,inactive,inactive,inactive,inactive,inactive,–,–,–,–,–
CCCCCCCCC=O,–,–,–,–,–,active,–,–,–,–
O=C1CCCCC1,inactive,inactive,inactive,inactive,inactive,–,–,–,–,–
